Paper doi:10.1101/2020.04.07.029496 (bioRxiv, 2020)
No constants are given. Whether binding was seen depends on the method and setting. Some binding calls cover weakened binding; strength is not graded here.

Target: T1, S. cerevisiae Tip20 (S. cerevisiae) (UniProt P33891)
T1 sequence: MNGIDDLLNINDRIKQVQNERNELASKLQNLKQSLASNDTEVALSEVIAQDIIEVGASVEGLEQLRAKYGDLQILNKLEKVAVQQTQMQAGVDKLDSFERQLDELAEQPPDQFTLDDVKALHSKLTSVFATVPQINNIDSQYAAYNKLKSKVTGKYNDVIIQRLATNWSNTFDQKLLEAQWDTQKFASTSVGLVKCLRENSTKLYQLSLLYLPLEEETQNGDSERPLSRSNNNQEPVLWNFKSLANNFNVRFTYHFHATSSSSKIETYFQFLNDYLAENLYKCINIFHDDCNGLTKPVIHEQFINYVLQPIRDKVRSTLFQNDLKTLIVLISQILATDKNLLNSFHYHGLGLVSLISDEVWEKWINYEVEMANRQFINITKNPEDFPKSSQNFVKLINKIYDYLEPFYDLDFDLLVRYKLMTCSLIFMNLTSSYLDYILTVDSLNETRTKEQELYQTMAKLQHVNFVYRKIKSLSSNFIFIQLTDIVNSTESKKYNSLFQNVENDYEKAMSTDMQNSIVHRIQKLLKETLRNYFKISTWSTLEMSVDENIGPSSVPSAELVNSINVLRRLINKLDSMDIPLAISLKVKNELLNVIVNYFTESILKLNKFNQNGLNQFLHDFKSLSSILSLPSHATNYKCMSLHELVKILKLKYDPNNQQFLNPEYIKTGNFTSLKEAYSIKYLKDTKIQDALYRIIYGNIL
Assay: ITC

B1: S. cerevisiae Sec20_(1-174) (domain or fragment, UniProt P28791 1-174, looked up)
chain: MVVTFLQDLEVLQDALLNNLQKLSAISRRKESGESKHDNKDSFAAIANEHNDEEEEIEFEDLVNIIESKVSDFESVLKCSIVEMTYKYPELKLQWEKSPRYDQCDKLHIVKLDKQMNEDIYAQLVEELDFVLQFVDWFYCYRLKVKEILRQHHKRDLAWNDEKRDRAIKFHAVD
B1 was tested. Which binding did it give?
The binding was “binds”.
